{"source": "PubChem BioAssay AID1259424 (University of Nebraska Medical Center, 2018)", "test": "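Find knockdowns that reproduce the expression shifts seen after KSR1 loss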 (primary screen)", "system": "human HCT116 colon cancer cells", "reagents": "siRNA pool against human genes, 50 nM", "read-out": "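Six signature mRNAs by branched-DNA multiplex assay, scaled to two housekeeping genes and non-targeting median, log2; matched to mean KSR1 knockdown profile by Pearson correlation and euclidean distance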", "reading the numbers": "mean correlation with KSR1 profile: higher = expression change more like KSR1 knockdown", "note": "The whole screen tested about 14,000 reagents; this is a random part of them. 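Higher correlation or smaller distance means closer resemblance to KSR1 loss; control wells, including KSR1 knockdowns, recur on many plates.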 Not all columns of the deposit are shown. The record does not give: the time to read-out."}
{"gene": "RO60", "mean correlation with KSR1 profile": -0.449}
{"gene": "MYBPC1", "mean correlation with KSR1 profile": 0.718}
{"gene": "IGDCC4", "mean correlation with KSR1 profile": 0.315}
{"gene": "RNF41", "mean correlation with KSR1 profile": -0.0354}
{"gene": "VPS29", "mean correlation with KSR1 profile": -0.705}
{"gene": "PNMT", "mean correlation with KSR1 profile": 0.405}
{"gene": "PABPC3", "mean correlation with KSR1 profile": 0.0905}
{"gene": "MRPL27", "mean correlation with KSR1 profile": 0.0635}
{"gene": "AKAP11", "mean correlation with KSR1 profile": 0.344}
{"gene": "PAXIP1", "mean correlation with KSR1 profile": -0.241}

Laid out differently: 4 of the entries above.
{"gene":"RO60","mean correlation with KSR1 profile":-0.449}
{"gene":"MYBPC1","mean correlation with KSR1 profile":0.718}
{"gene":"IGDCC4","mean correlation with KSR1 profile":0.315}
{"gene":"RNF41","mean correlation with KSR1 profile":-0.0354}

Next entries:
{"gene": "ATP2B3", "mean correlation with KSR1 profile": -0.282}
{"gene": "SDHB", "mean correlation with KSR1 profile": -0.599}
{"gene": "ZNF207", "mean correlation with KSR1 profile": -0.514}
{"gene": "SLC26A6", "mean correlation with KSR1 profile": 0.0159}
{"gene": "SEL1L3", "mean correlation with KSR1 profile": 0.46}
{"gene": "INTS13", "mean correlation with KSR1 profile": 0.321}
{"gene": "WWTR1", "mean correlation with KSR1 profile": -0.116}
{"gene": "BSPRY", "mean correlation with KSR1 profile": -0.529}
{"gene": "DLX4", "mean correlation with KSR1 profile": -0.563}
{"gene": "PYY", "mean correlation with KSR1 profile": -0.478}
{"gene": "MPG", "mean correlation with KSR1 profile": -0.249}
{"gene": "PDE4D", "mean correlation with KSR1 profile": 0.413}
{"gene": "DDT", "mean correlation with KSR1 profile": -0.195}
{"gene": "ACP6", "mean correlation with KSR1 profile": -0.278}
{"gene": "CHRM5", "mean correlation with KSR1 profile": -0.597}
{"gene": "MAP3K2", "mean correlation with KSR1 profile": -0.0315}
{"gene": "LGR5", "mean correlation with KSR1 profile": 0.885}
{"gene": "HILPDA", "mean correlation with KSR1 profile": -0.742}
